Assay: Ejection force of compressed tablets (instrumented tablet press)
Conditions: Example 8: 1.0% lubricant, FIG. 21

For magnesium stearate, the “change of ejection forces after 60 minutes of blending” value was “slightly decreased”.

— US20230201124A1, “LUBRICANT FOR PHARMACEUTICALS AND NUTRACEUTICALS” (JRS Pharma GmbH & Co. KG, priority 2021, published 2023)
